# The list shows a part of the results. Residues, ends and D or L forms follow the SMILES beside them. *: point of attachment. Cbz = O=C(OCc1ccccc1)*
# Amino acid sequences for entries named in this document (tags omitted). A change or cut given only in a name is not applied to a line headed by its entry.
# UniProt Q12968: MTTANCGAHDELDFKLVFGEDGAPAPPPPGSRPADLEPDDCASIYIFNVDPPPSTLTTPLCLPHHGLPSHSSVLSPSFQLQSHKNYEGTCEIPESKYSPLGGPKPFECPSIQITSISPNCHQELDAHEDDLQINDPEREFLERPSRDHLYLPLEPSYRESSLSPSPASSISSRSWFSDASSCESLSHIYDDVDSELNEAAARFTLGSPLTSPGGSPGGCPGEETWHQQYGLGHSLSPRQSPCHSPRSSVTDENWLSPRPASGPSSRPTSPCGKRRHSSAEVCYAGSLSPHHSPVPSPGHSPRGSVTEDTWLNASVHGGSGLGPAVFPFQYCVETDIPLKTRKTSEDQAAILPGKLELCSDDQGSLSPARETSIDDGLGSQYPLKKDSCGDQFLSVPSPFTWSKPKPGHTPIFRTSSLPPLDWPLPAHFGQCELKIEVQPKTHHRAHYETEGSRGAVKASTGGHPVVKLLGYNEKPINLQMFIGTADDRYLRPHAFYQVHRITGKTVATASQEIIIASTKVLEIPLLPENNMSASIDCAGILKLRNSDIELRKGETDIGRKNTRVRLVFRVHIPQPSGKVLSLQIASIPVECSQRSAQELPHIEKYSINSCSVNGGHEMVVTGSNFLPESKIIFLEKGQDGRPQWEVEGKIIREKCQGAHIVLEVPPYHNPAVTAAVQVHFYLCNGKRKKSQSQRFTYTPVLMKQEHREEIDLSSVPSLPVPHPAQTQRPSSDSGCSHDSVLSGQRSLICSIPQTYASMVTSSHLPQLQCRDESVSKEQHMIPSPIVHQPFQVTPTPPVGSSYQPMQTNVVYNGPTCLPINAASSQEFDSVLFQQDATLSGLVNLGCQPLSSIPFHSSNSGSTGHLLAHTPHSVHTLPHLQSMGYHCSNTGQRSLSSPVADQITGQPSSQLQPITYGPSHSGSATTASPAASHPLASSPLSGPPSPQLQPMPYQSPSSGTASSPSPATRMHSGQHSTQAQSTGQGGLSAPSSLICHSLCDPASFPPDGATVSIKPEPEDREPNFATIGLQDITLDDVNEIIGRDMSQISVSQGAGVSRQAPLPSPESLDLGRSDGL
# UniProt P08651, whole entry, looked up: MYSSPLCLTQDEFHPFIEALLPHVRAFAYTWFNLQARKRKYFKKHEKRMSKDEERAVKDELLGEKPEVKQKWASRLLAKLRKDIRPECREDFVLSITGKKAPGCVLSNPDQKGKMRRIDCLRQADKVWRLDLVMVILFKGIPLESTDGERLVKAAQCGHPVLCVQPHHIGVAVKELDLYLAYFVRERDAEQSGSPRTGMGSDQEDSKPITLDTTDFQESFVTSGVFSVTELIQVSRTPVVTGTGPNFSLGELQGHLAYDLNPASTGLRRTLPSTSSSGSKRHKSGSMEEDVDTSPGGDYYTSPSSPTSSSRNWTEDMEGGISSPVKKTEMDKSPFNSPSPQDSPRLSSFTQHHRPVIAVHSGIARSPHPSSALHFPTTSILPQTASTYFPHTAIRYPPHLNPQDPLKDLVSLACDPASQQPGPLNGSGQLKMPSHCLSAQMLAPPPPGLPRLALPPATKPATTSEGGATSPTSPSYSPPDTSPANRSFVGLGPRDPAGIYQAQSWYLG
# UniProt P46087: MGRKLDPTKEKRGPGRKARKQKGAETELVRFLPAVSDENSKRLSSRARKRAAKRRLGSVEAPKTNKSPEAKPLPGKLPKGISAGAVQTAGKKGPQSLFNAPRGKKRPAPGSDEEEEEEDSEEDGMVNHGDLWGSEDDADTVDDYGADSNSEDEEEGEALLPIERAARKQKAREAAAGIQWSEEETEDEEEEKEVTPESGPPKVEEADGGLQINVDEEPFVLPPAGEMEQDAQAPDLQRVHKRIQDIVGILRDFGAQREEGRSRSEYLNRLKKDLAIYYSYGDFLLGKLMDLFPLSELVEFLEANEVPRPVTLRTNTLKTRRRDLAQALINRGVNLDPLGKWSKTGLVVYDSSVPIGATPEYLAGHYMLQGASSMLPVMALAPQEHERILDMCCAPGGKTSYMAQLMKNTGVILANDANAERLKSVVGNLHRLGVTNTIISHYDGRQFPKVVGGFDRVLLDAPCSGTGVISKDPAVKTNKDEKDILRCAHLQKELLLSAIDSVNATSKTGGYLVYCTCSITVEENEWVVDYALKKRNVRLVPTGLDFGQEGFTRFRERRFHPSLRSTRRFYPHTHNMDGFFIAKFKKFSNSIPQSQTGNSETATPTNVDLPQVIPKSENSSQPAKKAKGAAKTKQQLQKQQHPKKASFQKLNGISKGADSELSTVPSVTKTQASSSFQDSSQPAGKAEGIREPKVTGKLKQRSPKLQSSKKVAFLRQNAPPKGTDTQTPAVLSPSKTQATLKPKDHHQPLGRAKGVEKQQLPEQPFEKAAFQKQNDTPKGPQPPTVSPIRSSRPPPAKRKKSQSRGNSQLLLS
# UniProt Q9Y221: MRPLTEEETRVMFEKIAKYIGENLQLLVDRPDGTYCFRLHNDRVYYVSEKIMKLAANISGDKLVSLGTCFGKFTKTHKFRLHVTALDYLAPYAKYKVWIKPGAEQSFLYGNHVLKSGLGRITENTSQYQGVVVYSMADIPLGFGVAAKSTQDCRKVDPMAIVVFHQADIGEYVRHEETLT
# UniProt Q96D46: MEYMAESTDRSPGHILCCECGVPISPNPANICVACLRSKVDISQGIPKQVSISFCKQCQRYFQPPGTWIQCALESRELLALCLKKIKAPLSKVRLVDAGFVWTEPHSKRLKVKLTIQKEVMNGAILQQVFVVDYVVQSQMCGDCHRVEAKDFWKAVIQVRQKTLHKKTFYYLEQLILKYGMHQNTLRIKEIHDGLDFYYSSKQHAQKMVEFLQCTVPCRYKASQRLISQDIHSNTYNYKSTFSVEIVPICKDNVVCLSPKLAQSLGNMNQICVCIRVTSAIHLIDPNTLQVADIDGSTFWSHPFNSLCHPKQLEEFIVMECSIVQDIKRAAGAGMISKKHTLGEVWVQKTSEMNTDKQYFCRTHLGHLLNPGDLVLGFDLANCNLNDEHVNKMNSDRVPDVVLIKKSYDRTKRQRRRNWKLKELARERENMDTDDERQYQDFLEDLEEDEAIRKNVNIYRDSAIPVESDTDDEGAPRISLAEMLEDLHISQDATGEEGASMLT
# UniProt P61916: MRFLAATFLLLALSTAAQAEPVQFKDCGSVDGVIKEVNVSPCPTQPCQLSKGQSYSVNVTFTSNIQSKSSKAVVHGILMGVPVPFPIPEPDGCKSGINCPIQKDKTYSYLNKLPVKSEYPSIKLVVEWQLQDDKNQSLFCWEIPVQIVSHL
# UniProt Q5JS37: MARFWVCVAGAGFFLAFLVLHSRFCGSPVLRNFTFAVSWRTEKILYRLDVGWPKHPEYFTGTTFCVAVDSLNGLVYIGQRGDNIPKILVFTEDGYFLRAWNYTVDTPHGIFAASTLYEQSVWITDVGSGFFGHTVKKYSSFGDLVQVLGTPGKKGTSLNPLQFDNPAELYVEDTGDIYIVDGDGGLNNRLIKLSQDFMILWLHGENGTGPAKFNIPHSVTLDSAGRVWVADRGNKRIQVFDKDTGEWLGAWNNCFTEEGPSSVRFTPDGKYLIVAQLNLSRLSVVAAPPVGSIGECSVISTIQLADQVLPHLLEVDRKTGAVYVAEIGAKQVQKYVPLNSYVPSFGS
# UniProt Q9NQR4: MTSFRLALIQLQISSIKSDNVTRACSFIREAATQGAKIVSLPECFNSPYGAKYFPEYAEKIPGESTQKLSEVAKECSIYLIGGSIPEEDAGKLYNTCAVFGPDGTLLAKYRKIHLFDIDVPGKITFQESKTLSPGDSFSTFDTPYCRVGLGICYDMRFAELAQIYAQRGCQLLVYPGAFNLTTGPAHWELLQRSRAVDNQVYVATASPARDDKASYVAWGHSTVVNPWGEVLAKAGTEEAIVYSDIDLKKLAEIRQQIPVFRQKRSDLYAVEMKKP
# UniProt O75323: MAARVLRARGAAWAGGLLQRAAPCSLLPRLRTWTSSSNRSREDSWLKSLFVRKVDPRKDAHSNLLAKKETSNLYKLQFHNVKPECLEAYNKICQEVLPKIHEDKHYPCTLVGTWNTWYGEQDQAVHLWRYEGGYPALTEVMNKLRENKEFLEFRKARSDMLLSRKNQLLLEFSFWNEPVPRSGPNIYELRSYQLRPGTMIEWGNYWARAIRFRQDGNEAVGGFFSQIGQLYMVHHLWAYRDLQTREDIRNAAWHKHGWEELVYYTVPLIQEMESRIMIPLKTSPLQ
# UniProt P15559, whole entry, looked up: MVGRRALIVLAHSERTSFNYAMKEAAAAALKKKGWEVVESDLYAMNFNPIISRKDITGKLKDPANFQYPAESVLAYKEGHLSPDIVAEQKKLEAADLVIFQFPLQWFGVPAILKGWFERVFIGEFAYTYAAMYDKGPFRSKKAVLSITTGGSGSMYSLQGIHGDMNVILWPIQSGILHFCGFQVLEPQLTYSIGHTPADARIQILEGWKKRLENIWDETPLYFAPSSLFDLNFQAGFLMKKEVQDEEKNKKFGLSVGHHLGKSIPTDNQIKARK
# UniProt Q15653: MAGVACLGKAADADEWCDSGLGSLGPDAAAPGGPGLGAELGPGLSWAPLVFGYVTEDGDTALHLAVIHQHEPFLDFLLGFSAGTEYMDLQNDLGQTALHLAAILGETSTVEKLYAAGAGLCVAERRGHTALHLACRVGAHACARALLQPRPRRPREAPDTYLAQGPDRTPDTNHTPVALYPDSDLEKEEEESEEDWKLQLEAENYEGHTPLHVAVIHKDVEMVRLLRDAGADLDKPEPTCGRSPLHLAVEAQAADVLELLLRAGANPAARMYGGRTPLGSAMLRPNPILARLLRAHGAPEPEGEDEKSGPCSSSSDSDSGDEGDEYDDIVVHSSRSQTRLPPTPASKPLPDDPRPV
# UniProt Q8NBF2: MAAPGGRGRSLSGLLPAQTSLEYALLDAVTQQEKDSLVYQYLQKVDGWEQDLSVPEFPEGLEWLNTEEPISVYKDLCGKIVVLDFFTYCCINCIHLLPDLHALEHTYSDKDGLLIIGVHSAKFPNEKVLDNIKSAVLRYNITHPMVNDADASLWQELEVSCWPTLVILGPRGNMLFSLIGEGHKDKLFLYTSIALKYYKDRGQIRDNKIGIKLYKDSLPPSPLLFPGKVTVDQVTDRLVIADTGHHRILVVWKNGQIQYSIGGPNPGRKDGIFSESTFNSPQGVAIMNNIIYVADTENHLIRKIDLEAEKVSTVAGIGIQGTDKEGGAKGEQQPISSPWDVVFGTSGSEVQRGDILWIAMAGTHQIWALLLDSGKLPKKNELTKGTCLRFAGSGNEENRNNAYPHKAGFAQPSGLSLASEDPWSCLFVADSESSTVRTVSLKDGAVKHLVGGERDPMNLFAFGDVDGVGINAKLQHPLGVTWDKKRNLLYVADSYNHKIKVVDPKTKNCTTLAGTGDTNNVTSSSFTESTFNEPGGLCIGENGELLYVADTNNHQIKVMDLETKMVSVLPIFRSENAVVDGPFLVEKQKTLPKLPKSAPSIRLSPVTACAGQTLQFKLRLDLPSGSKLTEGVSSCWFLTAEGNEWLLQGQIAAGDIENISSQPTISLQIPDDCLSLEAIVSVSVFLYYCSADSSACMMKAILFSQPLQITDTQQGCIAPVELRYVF
# UniProt Q9Y314: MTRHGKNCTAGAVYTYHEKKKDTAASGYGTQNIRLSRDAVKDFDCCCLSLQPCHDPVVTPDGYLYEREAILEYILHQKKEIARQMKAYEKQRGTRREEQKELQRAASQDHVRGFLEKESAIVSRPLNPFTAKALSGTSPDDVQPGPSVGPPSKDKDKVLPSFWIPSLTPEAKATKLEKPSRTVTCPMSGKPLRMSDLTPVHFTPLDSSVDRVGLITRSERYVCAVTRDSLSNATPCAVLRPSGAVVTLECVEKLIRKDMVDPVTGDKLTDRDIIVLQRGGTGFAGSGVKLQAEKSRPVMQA
# UniProt Q96IV0: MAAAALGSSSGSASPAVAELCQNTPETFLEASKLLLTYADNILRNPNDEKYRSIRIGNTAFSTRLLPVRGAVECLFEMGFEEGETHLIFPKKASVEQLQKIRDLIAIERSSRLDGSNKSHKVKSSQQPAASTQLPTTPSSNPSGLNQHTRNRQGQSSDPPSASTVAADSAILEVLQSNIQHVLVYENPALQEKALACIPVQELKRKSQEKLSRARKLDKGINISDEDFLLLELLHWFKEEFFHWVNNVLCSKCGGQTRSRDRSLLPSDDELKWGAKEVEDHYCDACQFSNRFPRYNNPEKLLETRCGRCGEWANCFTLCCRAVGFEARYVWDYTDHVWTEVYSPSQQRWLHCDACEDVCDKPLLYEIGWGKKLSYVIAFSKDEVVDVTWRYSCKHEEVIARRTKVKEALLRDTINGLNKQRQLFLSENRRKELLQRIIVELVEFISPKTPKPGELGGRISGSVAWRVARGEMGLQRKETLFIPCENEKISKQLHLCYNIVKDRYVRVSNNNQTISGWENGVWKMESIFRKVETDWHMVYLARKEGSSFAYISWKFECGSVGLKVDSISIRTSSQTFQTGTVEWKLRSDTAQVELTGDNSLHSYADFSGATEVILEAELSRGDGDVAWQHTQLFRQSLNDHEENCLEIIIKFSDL
# What was measured:
# Assay in all cases: log2 fold change, soluble protein after heating vs DMSO (PISA); higher = thermal stabilisation; K562 cells, 10 uM, 30 min; active = over 0.2 and 3.5 SD of the protein, either way, in both replicates (recomputed)
# IRAK-1-4 Inhibitor I = compound: C1COCCN1CCN2C3=CC=CC=C3N=C2NC(=O)C4=CC(=CC=C4)[N+](=O)[O-] [IRAK-1-4 Inhibitor I]
# Method in brief: (§1)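 K562 cells at 2×10^6 cells/mL were treated with 10 μM compound for 30 min. Aliquots were heated for 3 min across 48°C-58°C, pooled, and extracted in PBS with 0.5% NP-40 at 4°C; soluble protein was the supernatant after 21,000xg for 90 min. Soluble protein was quantified by TMTpro 16plex LC-MS/MS with channel sums equalised, and reported as log2 fold change in thermal stability against DMSO controls, with values from duplicates.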
# ibrutinib = compound: C=CC(=O)N1CCC[C@@H](n2nc(-c3ccc(Oc4ccccc4)cc3)c3c(N)ncnc32)C1 [ibrutinib]
# Method in brief: as §1
# [1] = compound: CC(=O)c1cnc2ccc(-c3cc(Cl)c(O)c(Cl)c3)nc2c1N[C@H]1CC[C@H](CN(C)C)CC1
# Method in brief: as §1
# ralimetinib = compound: CC(C)(C)Cn1c(N)nc2ccc(-c3[nH]c(C(C)(C)C)nc3-c3ccc(F)cc3)nc21 [ralimetinib]
# Method in brief: as §1
# [2] = compound: CC(C)(O)CC(=O)NCCn1ccc2ncnc(Nc3ccc(Oc4cccc(C(F)(F)F)c4)c(Cl)c3)c21
# Method in brief: as §1
# [3] = compound: CC(C)C1=C2N=C(C=C(N2N=C1)NCC3=CC=CC=C3)NCCCCCCN
# Method in brief: as §1
# [4] = compound: CC(C)C[C@@H](C=O)NC(=O)[C@H](CC(C)C)NC(=O)[C@H](CC(C)C)NC(=O)OCc1ccccc1
# Method in brief: as §1
# pinometostat = compound: CC(C)N(C[C@H]1O[C@@H](n2cnc3c(N)ncnc32)[C@H](O)[C@@H]1O)[C@H]1C[C@@H](CCc2nc3cc(C(C)(C)C)ccc3[nH]2)C1 [pinometostat]
# Method in brief: as §1
# [5] = compound: CC1=C(C2=C(C=C1)C(=O)C3=CC=CC=C3N2CCCN)C
# Method in brief: as §1
# [6] = compound: CC1=C(C=C(C=C1)NC(=O)C2=CC(=CC=C2)C(C)(C)C#N)NC3=CC4=C(C=C3)N=CN(C4=O)C
# Method in brief: as §1
# [7] = compound: CC1=C(C=C(C=C1)NC(=O)C2=CC(=CC=C2)N(C)C)NC(=O)C3=CC=C(C=C3)O
# Method in brief: as §1
# [8] = compound: CC1=CC=C(C=C1)SC2=C3C=C(SC3=CN=C2)C(=O)N
# Method in brief: as §1
# [9] = compound: CC1=NC(=CC=C1)C2=C(N=C(N2)C(C)(C)C)C3=CC4=NC=CN=C4C=C3
# Method in brief: as §1
# Nexturastat A = compound: CCCCN(Cc1ccc(C(=O)NO)cc1)C(=O)Nc1ccccc1 [Nexturastat A]
# Method in brief: as §1
# vemurafenib = compound: CCCS(=O)(=O)Nc1ccc(F)c(C(=O)c2c[nH]c3ncc(-c4ccc(Cl)cc4)cc23)c1F [vemurafenib]
# Method in brief: as §1
# [10] = compound: CCCS(=O)(=O)Nc1ccc(F)c(C(=O)c2c[nH]c3ncc(Cl)cc23)c1F
# Method in brief: as §1
# [11] = compound: CCCc1cc(C)[nH]c(=O)c1CNC(=O)c1cc(-c2ccnc(N3CCN(C)CC3)c2)cc2c1cnn2C(C)C
# Method in brief: as §1
# givinostat = compound: CCN(CC)Cc1ccc2cc(COC(=O)Nc3ccc(C(=O)NO)cc3)ccc2c1 [givinostat]
# Method in brief: as §1
# barasertib = compound: CCN(CCCOc1ccc2c(Nc3cc(CC(=O)Nc4cccc(F)c4)[nH]n3)ncnc2c1)CCOP(=O)(O)O [barasertib]
# Method in brief: as §1
# [12] = compound: CC1=C(C(CC(=O)N1)C2=CC=C(C=C2)C(F)(F)F)C(=O)NC3=C(C=C4C(=C3)C=NN4)F
# Method in brief: as §1
Target,log2 fold change (IRAK-1-4 Inhibitor I),log2 fold change (ibrutinib),log2 fold change [1],log2 fold change (ralimetinib),log2 fold change [2],log2 fold change [3],log2 fold change [4],log2 fold change (pinometostat),log2 fold change [5],log2 fold change [6],log2 fold change [7],log2 fold change [8],log2 fold change [9],log2 fold change (Nexturastat A),log2 fold change (vemurafenib),log2 fold change [10],log2 fold change [11],log2 fold change (givinostat),log2 fold change (barasertib),log2 fold change [12]
NEU1 (UniProt Q99519),inactive: -0.136,inactive: -0.069,inactive: -0.175,inactive: 0.05,inactive: 0.018,active: -0.379,inactive: 0.166,inactive: -0.021,inactive: -0.131,inactive: 0.031,inactive: -0.048,inactive: 0.029,inactive: 0.118,inactive: 0.068,inactive: -0.002,inactive: -0.008,inactive: 0.057,inactive: 0.036,inactive: 0.059,
NMT1 (UniProt P30419),inactive: 0.023,inactive: 0.028,inactive: 0.017,inactive: 0.017,inactive: -0.047,inactive: -0.053,inactive: 0.008,inactive: 0.037,inactive: -0.051,inactive: -0.012,inactive: -0.006,inactive: -0.012,inactive: 0.021,inactive: -0.036,inactive: -0.013,inactive: 0,inactive: 0.023,active: -0.284,inactive: -0.015,
NFATC3 (UniProt Q12968),inactive: -0.116,inactive: 0.01,active: -0.406,active: 0.386,inactive: -0.105,inactive: -0.209,inactive: 0.145,inactive: 0.053,inactive: -0.036,inactive: 0.067,inactive: -0.506,inactive: 0,inactive: -0.055,inactive: 0.047,inactive: -0.033,inactive: 0.094,inactive: 0.116,inactive: 0.088,inactive: 0.019,
NFIC (UniProt P08651),inactive: -0.02,inactive: -0.003,inactive: -0.072,inactive: 0.038,inactive: -0.036,inactive: 0.029,inactive: 0.031,inactive: 0.074,inactive: 0.097,inactive: -0.064,inactive: 0.076,inactive: -0.022,inactive: 0.008,inactive: 0.133,inactive: -0.076,inactive: -0.013,inactive: -0.046,inactive: -0.11,inactive: -0.018,inactive: -0.01
NOP2 isoform 4 (UniProt P46087),inactive: -0.111,inactive: -0.278,inactive: 0.308,inactive: 0.205,inactive: 0.163,inactive: 0.241,inactive: 0.194,inactive: 0.325,inactive: -0.474,inactive: -0.031,inactive: -0.062,inactive: -0.105,inactive: -0.264,inactive: 0.2,inactive: -0.433,inactive: -0.051,inactive: 0.172,inactive: 0.178,inactive: -0.223,
NIP7 (UniProt Q9Y221),inactive: 0,inactive: 0.069,inactive: 0.151,inactive: 0.099,inactive: 0.066,inactive: 0.166,inactive: 0.077,inactive: 0.266,inactive: 0,inactive: 0.055,inactive: -0.065,inactive: -0.004,inactive: -0.101,inactive: 0.213,inactive: -0.103,inactive: -0.006,inactive: -0.161,inactive: 0.083,inactive: -0.03,inactive: -0.063
NMD3 (UniProt Q96D46),inactive: 0.001,inactive: -0.046,inactive: 0.017,inactive: -0.049,inactive: -0.104,inactive: -0.069,inactive: -0.141,inactive: -0.026,active: -0.392,inactive: 0.03,inactive: -0.061,inactive: -0.009,inactive: 0.067,inactive: -0.079,inactive: 0.077,inactive: 0.03,inactive: -0.004,inactive: -0.024,inactive: 0.015,
NPC2 (UniProt P61916),inactive: 0.024,inactive: 0.054,inactive: 0.008,inactive: -0.021,inactive: -0.011,inactive: -0.004,inactive: -0.046,inactive: -0.077,inactive: -0.016,inactive: -0.038,inactive: 0.021,inactive: 0.141,inactive: -0.016,inactive: -0.01,inactive: -0.039,inactive: -0.103,inactive: 0.014,inactive: -0.016,inactive: 0.046,inactive: 0.057
NHLRC3 (UniProt Q5JS37),inactive: -0.172,inactive: 0.083,inactive: 0.004,inactive: -0.08,inactive: 0.024,inactive: 0.048,inactive: -0.002,inactive: -0.112,inactive: 0.04,inactive: -0.036,inactive: 0.036,inactive: -0.096,inactive: 0.21,inactive: -0.059,,inactive: -0.183,inactive: -0.064,inactive: -0.068,inactive: -0.118,inactive: 0.092
NIT2 (UniProt Q9NQR4),inactive: 0.025,inactive: 0.013,inactive: 0.032,inactive: -0.068,inactive: 0,inactive: 0.02,inactive: 0.014,inactive: -0.034,inactive: 0.021,inactive: -0.036,inactive: 0.027,inactive: 0.004,inactive: 0.02,inactive: -0.04,inactive: -0.006,inactive: -0.028,inactive: -0.054,inactive: -0.045,inactive: 0.024,inactive: -0.025
NIPSNAP2 (UniProt O75323),inactive: 0.018,inactive: 0.115,inactive: -0.084,inactive: -0.054,inactive: 0.049,inactive: 0.014,inactive: -0.015,inactive: -0.034,inactive: 0.031,inactive: 0.06,inactive: -0.044,inactive: 0.055,inactive: 0,inactive: -0.072,inactive: 0.06,inactive: 0.029,inactive: 0.007,inactive: -0.081,inactive: 0.019,
NQO1 (UniProt P15559),inactive: 0.001,inactive: -0.053,inactive: 0.044,inactive: 0.001,inactive: -0.029,inactive: -0.035,inactive: -0.045,inactive: -0.02,inactive: -0.01,inactive: 0.075,inactive: -0.023,inactive: 0.032,inactive: 0.025,inactive: -0.049,inactive: 0.027,inactive: -0.007,inactive: 0.039,inactive: -0.01,inactive: 0.036,
NISCH (UniProt Q9Y2I1),inactive: 0.053,inactive: 0,inactive: -0.037,inactive: 0.02,inactive: 0.007,inactive: -0.429,inactive: 0.028,inactive: 0.047,inactive: 0.004,inactive: 0.009,inactive: -0.07,inactive: -0.054,inactive: -0.018,inactive: 0.094,inactive: 0.055,inactive: 0.116,inactive: -0.077,inactive: 0.032,inactive: 0.075,
NFKBIB (UniProt Q15653),inactive: -0.05,inactive: -0.059,inactive: 0.077,inactive: 0.002,inactive: -0.046,inactive: -0.022,inactive: -0.026,inactive: 0.009,inactive: 0.025,inactive: 0.027,inactive: -0.061,inactive: 0.021,inactive: 0,inactive: 0.031,inactive: 0.013,inactive: 0.046,inactive: 0.031,inactive: -0.025,inactive: -0.011,inactive: -0.051
NHLRC2 (UniProt Q8NBF2),inactive: 0.039,inactive: 0.07,inactive: -0.02,inactive: -0.122,inactive: -0.026,inactive: -0.124,inactive: 0.143,inactive: 0.013,inactive: 0.023,inactive: -0.06,inactive: 0.225,inactive: -0.014,inactive: -0.014,inactive: -0.055,inactive: -0.053,inactive: -0.048,inactive: -0.076,inactive: -0.006,inactive: -0.004,
NOSIP (UniProt Q9Y314),inactive: -0.401,inactive: -0.032,inactive: -0.033,inactive: -0.065,inactive: -0.135,inactive: -0.106,inactive: -0.039,inactive: 0.085,inactive: 0.186,inactive: 0.02,inactive: -0.2,inactive: 0.032,inactive: 0.012,inactive: 0.149,inactive: 0.247,inactive: 0.168,inactive: 0.047,inactive: 0.14,inactive: 0.197,
NGLY1 (UniProt Q96IV0),inactive: -0.091,inactive: -0.052,inactive: -0.059,inactive: 0.018,inactive: -0.07,inactive: -0.071,inactive: 0.036,inactive: 0.088,inactive: 0.123,inactive: -0.034,inactive: -0.039,inactive: 0.052,inactive: -0.016,inactive: 0.102,inactive: 0.009,inactive: 0.026,inactive: 0.016,inactive: 0.036,inactive: 0.024,

# Random excerpt: 2 entries already listed, in no set order.
Target,log2 fold change (IRAK-1-4 Inhibitor I),log2 fold change (ibrutinib),log2 fold change [1],log2 fold change (ralimetinib),log2 fold change [2],log2 fold change [3],log2 fold change [4],log2 fold change (pinometostat),log2 fold change [5],log2 fold change [6],log2 fold change [7],log2 fold change [8],log2 fold change [9],log2 fold change (Nexturastat A),log2 fold change (vemurafenib),log2 fold change [10],log2 fold change [11],log2 fold change (givinostat),log2 fold change (barasertib),log2 fold change [12]
NFATC3 (UniProt Q12968),inactive: -0.116,inactive: 0.01,active: -0.406,active: 0.386,inactive: -0.105,inactive: -0.209,inactive: 0.145,inactive: 0.053,inactive: -0.036,inactive: 0.067,inactive: -0.506,inactive: 0,inactive: -0.055,inactive: 0.047,inactive: -0.033,inactive: 0.094,inactive: 0.116,inactive: 0.088,inactive: 0.019,
NOP2 isoform 4 (UniProt P46087),inactive: -0.111,inactive: -0.278,inactive: 0.308,inactive: 0.205,inactive: 0.163,inactive: 0.241,inactive: 0.194,inactive: 0.325,inactive: -0.474,inactive: -0.031,inactive: -0.062,inactive: -0.105,inactive: -0.264,inactive: 0.2,inactive: -0.433,inactive: -0.051,inactive: 0.172,inactive: 0.178,inactive: -0.223,

# — the supplement of paper PMC10849652
